The source of these data is article PMC5739638.

Amino acid sequences for entries named in this document (tags omitted). Residues count along the entry.
UniProt Q04206: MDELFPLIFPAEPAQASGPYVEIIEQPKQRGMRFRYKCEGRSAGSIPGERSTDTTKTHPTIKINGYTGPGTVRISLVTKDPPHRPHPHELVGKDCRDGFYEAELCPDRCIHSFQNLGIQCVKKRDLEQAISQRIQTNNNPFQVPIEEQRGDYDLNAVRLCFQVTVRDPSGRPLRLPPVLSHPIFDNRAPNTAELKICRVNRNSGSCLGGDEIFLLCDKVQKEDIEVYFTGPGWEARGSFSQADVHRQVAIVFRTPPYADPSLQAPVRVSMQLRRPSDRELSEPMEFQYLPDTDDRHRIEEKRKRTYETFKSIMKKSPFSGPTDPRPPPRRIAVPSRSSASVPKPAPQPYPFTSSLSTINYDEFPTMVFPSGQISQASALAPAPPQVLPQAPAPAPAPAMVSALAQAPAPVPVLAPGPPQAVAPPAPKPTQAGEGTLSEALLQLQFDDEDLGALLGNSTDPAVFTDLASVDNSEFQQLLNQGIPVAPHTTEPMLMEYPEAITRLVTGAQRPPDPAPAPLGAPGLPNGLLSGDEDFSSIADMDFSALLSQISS
UniProt P15941, residues 24-1255: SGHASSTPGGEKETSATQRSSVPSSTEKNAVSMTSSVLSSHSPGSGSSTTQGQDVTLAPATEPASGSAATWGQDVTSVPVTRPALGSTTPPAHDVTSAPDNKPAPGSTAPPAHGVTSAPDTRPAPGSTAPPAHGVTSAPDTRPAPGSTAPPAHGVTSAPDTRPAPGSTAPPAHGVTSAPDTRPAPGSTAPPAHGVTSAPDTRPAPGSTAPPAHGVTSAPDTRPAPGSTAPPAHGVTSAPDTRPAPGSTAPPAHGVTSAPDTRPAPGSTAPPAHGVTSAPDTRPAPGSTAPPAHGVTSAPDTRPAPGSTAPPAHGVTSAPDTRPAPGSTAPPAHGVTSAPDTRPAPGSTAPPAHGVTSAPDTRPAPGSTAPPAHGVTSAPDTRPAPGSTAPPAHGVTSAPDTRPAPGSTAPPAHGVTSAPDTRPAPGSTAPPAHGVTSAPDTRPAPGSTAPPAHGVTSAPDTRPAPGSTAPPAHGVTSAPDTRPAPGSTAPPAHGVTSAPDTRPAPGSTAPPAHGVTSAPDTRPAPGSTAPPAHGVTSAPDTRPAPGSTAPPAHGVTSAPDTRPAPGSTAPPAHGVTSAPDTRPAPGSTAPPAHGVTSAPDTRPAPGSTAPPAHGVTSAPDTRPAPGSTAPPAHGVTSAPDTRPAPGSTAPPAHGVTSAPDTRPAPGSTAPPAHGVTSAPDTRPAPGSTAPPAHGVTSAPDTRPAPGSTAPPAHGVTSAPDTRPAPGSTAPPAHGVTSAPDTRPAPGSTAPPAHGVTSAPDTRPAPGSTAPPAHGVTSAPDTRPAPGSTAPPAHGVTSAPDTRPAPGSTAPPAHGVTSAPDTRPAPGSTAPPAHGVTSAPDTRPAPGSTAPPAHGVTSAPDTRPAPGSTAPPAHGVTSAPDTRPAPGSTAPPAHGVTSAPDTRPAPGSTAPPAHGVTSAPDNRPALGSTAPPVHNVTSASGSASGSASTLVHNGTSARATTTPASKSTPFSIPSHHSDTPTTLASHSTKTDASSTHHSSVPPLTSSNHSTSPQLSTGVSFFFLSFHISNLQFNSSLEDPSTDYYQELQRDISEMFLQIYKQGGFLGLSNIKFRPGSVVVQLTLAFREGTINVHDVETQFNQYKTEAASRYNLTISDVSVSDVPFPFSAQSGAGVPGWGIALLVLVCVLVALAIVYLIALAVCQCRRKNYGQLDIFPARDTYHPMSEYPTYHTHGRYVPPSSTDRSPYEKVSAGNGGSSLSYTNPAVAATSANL

These are yes or no findings as the source states them, for the method shown. In cells and extracts the contact can be indirect. Some entries that bind do so weakly or less than the wild type.

For this assay, the target named is NF-κB p65 (human (endogenous in Caco-2 and HT-29)) (UniProt Q04206). Kind of assay: co-IP; nuclear proteins of TNF-stimulated Caco-2 and HT-29 cells; precipitated with anti-phospho-p65 antibody, immunoblotted with anti-MUC1 Ab5 or anti-EzH2 antibody.

“MUC1 mucin (from UniProt P15941 24-1255)”: the binding entry is “binds”.
